No constants are given. Whether binding was seen depends on the method and setting. Binding seen in cells or lysates may run through a third protein. These calls come from enrichment with a bait or labelling near it, and not all partners need be listed. Each block holds one molecule with its values, some of them ahead of it.
Molecular target: T1, Basonuclin 1 (human (endogenous in N/TERT-1)) (UniProt Q01954)
T1 sequence: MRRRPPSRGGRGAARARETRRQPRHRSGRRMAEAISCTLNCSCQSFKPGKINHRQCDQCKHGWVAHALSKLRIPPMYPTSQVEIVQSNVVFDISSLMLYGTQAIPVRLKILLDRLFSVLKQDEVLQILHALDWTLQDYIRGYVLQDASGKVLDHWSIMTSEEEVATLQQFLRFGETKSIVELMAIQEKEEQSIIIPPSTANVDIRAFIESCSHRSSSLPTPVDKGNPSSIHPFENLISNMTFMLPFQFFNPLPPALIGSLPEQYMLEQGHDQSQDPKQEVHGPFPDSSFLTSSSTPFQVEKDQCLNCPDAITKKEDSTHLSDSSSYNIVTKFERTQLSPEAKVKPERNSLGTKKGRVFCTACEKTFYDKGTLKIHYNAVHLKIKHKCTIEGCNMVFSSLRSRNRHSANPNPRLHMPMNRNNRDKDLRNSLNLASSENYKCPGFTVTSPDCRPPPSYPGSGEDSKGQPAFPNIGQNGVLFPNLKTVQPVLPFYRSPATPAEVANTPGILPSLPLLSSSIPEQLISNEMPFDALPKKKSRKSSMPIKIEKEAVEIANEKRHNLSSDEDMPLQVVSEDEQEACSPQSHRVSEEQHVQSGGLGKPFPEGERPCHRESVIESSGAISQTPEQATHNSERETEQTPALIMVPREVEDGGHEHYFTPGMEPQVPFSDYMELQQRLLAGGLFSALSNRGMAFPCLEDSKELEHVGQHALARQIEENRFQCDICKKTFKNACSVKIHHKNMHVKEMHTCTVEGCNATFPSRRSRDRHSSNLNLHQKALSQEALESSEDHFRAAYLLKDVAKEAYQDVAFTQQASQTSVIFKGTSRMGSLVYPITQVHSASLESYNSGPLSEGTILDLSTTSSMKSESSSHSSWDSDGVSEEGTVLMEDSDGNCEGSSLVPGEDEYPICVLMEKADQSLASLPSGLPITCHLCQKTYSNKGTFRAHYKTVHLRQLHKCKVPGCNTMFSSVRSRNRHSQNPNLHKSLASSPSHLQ
Experiment: affinity purification with mass spectrometry

Sequences of proteins named here, by UniProt entry; tags and fusion partners are left off.
UniProt O60264: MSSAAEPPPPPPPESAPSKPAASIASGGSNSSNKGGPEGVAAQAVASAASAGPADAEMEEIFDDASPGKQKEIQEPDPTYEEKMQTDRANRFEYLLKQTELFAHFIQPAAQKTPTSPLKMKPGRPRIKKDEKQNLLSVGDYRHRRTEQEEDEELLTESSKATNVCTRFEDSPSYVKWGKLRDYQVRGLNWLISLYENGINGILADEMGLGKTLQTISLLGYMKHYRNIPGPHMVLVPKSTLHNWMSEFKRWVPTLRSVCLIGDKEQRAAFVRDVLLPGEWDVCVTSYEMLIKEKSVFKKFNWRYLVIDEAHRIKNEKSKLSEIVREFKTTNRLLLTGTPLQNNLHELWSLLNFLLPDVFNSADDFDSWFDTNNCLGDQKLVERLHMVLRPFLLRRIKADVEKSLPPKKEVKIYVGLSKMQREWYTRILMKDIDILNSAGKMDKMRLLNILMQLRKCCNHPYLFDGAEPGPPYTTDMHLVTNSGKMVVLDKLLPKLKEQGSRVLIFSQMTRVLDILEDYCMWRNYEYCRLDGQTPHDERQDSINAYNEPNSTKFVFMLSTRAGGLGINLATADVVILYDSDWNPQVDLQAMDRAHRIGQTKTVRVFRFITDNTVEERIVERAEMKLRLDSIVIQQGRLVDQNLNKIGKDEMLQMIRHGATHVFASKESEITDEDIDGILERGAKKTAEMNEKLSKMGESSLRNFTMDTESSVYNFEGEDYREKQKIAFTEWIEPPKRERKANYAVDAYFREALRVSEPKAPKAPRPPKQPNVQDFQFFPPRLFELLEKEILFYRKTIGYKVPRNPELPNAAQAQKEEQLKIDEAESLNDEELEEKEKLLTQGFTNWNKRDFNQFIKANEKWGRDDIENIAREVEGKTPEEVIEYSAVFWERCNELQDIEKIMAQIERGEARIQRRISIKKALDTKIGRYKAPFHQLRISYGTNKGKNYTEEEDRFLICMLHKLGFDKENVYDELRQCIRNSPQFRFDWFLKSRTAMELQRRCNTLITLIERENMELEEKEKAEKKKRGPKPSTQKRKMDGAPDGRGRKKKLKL
UniProt Q99873: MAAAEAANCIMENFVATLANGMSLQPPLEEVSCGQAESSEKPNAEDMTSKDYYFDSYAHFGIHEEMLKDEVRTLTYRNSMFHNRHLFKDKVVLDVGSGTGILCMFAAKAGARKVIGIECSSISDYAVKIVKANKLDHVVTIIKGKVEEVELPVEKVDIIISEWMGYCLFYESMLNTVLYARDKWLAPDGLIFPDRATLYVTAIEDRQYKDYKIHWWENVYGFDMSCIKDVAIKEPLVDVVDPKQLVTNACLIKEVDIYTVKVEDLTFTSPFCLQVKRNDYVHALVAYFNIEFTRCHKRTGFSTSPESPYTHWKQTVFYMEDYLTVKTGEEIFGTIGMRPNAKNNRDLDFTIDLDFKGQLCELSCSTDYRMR
UniProt P05549: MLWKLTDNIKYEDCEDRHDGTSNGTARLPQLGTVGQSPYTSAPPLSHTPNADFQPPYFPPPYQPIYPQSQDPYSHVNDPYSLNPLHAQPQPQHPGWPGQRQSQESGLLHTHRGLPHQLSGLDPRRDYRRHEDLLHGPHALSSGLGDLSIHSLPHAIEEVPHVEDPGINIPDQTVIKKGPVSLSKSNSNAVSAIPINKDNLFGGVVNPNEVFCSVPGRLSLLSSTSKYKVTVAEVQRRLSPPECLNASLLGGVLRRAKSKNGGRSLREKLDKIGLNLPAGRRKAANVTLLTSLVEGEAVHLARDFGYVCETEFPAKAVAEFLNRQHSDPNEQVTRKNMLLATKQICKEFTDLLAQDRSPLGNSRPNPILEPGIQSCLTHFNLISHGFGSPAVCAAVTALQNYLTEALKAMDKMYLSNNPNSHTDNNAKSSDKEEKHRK

binding: binds
Molecule: SMARCA5 (from UniProt O60264 1-1052)

binding: binds
Molecule: PRMT1 (from UniProt Q99873 1-371) (enzyme)

binding: binds
Molecule: TFAP2A (from UniProt P05549 1-437)

binding: binds
B1: TP63 (protein, UniProt Q9H3D4 1-680)
chain: MNFETSRCATLQYCPDPYIQRFVETPAHFSWKESYYRSTMSQSTQTNEFLSPEVFQHIWDFLEQPICSVQPIDLNFVDEPSEDGATNKIEISMDCIRMQDSDLSDPMWPQYTNLGLLNSMDQQIQNGSSSTSPYNTDHAQNSVTAPSPYAQPSSTFDALSPSPAIPSNTDYPGPHSFDVSFQQSSTAKSATWTYSTELKKLYCQIAKTCPIQIKVMTPPPQGAVIRAMPVYKKAEHVTEVVKRCPNHELSREFNEGQIAPPSHLIRVEGNSHAQYVEDPITGRQSVLVPYEPPQVGTEFTTVLYNFMCNSSCVGGMNRRPILIIVTLETRDGQVLGRRCFEARICACPGRDRKADEDSIRKQQVSDSTKNGDGTKRPFRQNTHGIQMTSIKKRRSPDDELLYLPVRGRETYEMLLKIKESLELMQYLPQHTIETYRQQQQQQHQHLLQKQTSIQSPSSYGNSSPPLNKMNSMNKLPSVSQLINPQQRNALTPTTIPDGMGANIPMMGTHMPMAGDMNGLSPTQALPPPLSMPSTSHCTPPPPYPTDCSIVSFLARLGCSSCLDYFTTQGLTTIYQIEHYSMDDLASLKIPEQFRHAIWKGILDHRQLHEFSSPSHLLRTPSSASTVSVGSSETRGERVIDAVRFTLRQTISFPPRDEWNDFNFDMDARRNKQQRIKEEGE

binding: binds
B2: JUNB (protein, UniProt P17275 1-347)
chain: MCTKMEQPFYHDDSYTATGYGRAPGGLSLHDYKLLKPSLAVNLADPYRSLKAPGARGPGPEGGGGGSYFSGQGSDTGASLKLASSELERLIVPNSNGVITTTPTPPGQYFYPRGGGSGGGAGGAGGGVTEEQEGFADGFVKALDDLHKMNHVTPPNVSLGATGGPPAGPGGVYAGPEPPPVYTNLSSYSPASASSGGAGAAVGTGSSYPTTTISYLPHAPPFAGGHPAQLGLGRGASTFKEEPQTVPEARSRDATPPVSPINMEDQERIKVERKRLRNRLAATKCRKRKLERIARLEDKVKTLKAENAGLSSTAGLLREQVAQLKQKVMTHVSNGCQLLLGVKGHAF

From article doi:10.1101/2023.03.27.533164
